# “And” between values parts separate entries of the source, which are not always exact repeats. Equal entries are not always repeated. Some of the results follow. This data set is noisy: repeats of one test often differ as much as different tests do.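 HEK293T cells were given each compound shortly before transfection with a reporter in which red mCherry is followed by the SARS-CoV-2 frameshift element and then GFP in the −1 frame, so GFP appears only after frameshifting.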
# Legend:
# [1] = test system: SARS-CoV-2 -1 PRF reporter mCherry-FSE-GFP(-1); experiment: mCherry (red) intensity as percent of control; higher = higher upstream reporter expression; settings: 10 µM; 24 h; HEK293T
# [2] = test system: SARS-CoV-2 -1 PRF reporter mCherry-FSE-GFP(-1); experiment: percent effect, decrease of GFP/mCherry ratio (-1 PRF reporter) relative to controls; higher = stronger frameshift inhibition; settings: 10 µM; 24 h; HEK293T
Structure (SMILES),mCherry [1],percent effect [2]
CC(C)OC(=O)[C@H](C)N[P@](=O)(OC[C@H]1O[C@@H](n2ccc(=O)[nH]c2=O)[C@](C)(F)[C@@H]1O)Oc1ccccc1 [Sofosbuvir],113%,0.561%
COC(=O)Nc1nc2cc(C(=O)c3ccccc3)ccc2[nH]1,30.5%,-6.1%
Nc1ncnc2nc[nH]c12 [Leuco-4],149%,-1.01%
CNC(=O)COc1cc2cc(Nc3nc(N4C[C@H](C)C[C@H](C)C4)ncc3Cl)ccc2n(C)c1=O,80.1%,0.272%
CC[C@H](C)[C@@H]1NC(=O)[C@H](Cc2ccc(OC)cc2)NC(=O)CCCSC[C@@H](C(=O)N2CCC[C@H]2C(=O)N[C@@H](CC(C)C)C(=O)NCC(N)=O)NC(=O)[C@H](CC(N)=O)NC(=O)[C@H](CCC(N)=O)NC1=O [carbetocin],96.2%,-4.89%
CO/N=C(\C(=O)N[C@@H]1C(=O)N2C(C(=O)O)=C(COC(C)=O)CS[C@H]12)c1csc(N)n1 [Cefotaxime Acid],63%,-5.62%
CN1CCN(CC(=O)N2c3ccccc3C(=O)Nc3cccnc32)CC1 [pirenzepine],98.3% and 119%,-5.67% and 2.85%
Cc1nccc2[nH]c(=O)ccc12 [medorinone],109%,-8.75%
CC/C=C\C/C=C\C/C=C\C/C=C\C/C=C\CCCC(=O)O [icosapent],102%,-2.27%
NC(=O)Nc1ccc(S(=O)(=O)c2ccc(N)cc2)cc1 [amidapsone],75.8%,-4.47%
O=C1NCC2(CCN(CCc3ccccc3)CC2)O1,86.7%,-1.86%
CCOc1ccc2ccccc2c1C(=O)N[C@@H]1C(=O)N2[C@@H]1SC(C)(C)[C@@H]2C(=O)O [Unipen],97.8%,0.193%

# A different layout for some results above.
Structure (SMILES)	mCherry [1]	percent effect [2]
COC(=O)Nc1nc2cc(C(=O)c3ccccc3)ccc2[nH]1	30.5%	-6.1%
CNC(=O)COc1cc2cc(Nc3nc(N4C[C@H](C)C[C@H](C)C4)ncc3Cl)ccc2n(C)c1=O	80.1%	0.272%

# From the supplement of paper PMC8256030
